The source of these data is paper PMC7662524, “Determination and Dissection of DNA-Binding Specificity for the Thermus thermophilus HB8 Transcriptional Regulator TTHB099”.

For this data set, the target named is T1, TTHB099 (Thermus thermophilus HB8) (UniProt Q53W63).
T1 sequence (looked up, limits assumed): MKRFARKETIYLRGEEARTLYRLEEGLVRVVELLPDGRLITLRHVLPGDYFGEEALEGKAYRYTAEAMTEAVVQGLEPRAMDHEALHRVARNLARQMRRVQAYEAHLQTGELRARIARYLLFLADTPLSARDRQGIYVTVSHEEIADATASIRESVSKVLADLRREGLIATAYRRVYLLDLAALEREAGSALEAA
Put plainly: BLI. The note with it: pH and temperature not given (as previously described), BLI 17, 50, 150, 450 nM TTHB099 on streptavidin sensors, recombinant protein, label: 5' biotin (Bio_ST2R strand).

For at least one entry, the source does not settle the construct or the ends of the probe. Where a protein sequence is shown, tags need not be part of it.

With “AGGAATTCGTGCAGAGGTGAATTGTATTCTAGAATACATTACCATCCCTCCAGAAGCTTG (double strand) [ST2_099 consensus (wt), BLI probe]”, the Kd (commonly a measure of binding affinity in units of concentration) is, setting by setting: (100 nM 3',5'-cAMP, 200 nM TTHB099) 2.23 nM; (no cAMP) 2.21 nM.
